From the supplement of paper PMC10849652
This is one part of the list.

Amino acid sequences for entries named in this document (tags omitted). A change or cut given only in a name is not applied to a line headed by its entry.
UniProt P40926: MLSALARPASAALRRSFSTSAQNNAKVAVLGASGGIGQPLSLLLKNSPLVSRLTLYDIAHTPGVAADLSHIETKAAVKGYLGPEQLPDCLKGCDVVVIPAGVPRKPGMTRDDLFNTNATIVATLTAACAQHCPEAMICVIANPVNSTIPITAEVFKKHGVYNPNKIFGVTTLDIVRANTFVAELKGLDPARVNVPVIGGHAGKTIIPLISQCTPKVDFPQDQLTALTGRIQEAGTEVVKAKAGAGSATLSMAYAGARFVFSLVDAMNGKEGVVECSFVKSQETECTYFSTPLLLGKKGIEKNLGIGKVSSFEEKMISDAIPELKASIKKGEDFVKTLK
UniProt Q08431: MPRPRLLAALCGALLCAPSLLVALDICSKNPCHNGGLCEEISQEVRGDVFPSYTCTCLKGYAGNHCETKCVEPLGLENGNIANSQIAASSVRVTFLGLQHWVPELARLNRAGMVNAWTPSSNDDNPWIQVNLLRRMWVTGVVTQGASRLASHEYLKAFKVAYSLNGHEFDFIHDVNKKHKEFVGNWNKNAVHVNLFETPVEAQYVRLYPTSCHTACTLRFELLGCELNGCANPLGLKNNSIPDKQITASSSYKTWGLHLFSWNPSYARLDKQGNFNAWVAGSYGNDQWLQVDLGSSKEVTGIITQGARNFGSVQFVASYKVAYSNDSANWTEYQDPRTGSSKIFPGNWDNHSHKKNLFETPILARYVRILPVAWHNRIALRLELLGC
UniProt Q96PE7: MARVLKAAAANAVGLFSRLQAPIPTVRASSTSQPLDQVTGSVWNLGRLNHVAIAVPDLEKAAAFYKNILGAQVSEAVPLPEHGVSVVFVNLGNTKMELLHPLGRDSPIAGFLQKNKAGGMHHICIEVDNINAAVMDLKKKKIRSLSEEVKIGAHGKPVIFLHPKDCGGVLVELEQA
UniProt Q96HR3: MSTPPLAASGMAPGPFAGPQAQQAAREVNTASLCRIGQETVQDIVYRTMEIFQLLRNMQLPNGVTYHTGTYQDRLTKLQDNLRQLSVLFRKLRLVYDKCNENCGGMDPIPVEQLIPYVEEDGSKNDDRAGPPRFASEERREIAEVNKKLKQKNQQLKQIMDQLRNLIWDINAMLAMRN
UniProt Q14814: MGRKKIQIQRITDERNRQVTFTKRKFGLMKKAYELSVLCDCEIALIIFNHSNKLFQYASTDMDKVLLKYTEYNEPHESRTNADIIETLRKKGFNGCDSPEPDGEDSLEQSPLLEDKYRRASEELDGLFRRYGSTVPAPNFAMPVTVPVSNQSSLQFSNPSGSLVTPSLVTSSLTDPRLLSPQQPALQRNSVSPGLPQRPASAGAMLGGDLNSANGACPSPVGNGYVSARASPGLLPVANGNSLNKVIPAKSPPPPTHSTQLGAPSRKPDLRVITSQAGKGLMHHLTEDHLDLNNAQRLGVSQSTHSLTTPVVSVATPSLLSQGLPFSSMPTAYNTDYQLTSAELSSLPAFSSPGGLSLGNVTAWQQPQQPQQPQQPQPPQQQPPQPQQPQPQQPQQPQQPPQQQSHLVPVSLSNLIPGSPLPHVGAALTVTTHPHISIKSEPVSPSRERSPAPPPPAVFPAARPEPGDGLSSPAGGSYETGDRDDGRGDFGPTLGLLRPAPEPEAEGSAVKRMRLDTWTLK
UniProt O15021: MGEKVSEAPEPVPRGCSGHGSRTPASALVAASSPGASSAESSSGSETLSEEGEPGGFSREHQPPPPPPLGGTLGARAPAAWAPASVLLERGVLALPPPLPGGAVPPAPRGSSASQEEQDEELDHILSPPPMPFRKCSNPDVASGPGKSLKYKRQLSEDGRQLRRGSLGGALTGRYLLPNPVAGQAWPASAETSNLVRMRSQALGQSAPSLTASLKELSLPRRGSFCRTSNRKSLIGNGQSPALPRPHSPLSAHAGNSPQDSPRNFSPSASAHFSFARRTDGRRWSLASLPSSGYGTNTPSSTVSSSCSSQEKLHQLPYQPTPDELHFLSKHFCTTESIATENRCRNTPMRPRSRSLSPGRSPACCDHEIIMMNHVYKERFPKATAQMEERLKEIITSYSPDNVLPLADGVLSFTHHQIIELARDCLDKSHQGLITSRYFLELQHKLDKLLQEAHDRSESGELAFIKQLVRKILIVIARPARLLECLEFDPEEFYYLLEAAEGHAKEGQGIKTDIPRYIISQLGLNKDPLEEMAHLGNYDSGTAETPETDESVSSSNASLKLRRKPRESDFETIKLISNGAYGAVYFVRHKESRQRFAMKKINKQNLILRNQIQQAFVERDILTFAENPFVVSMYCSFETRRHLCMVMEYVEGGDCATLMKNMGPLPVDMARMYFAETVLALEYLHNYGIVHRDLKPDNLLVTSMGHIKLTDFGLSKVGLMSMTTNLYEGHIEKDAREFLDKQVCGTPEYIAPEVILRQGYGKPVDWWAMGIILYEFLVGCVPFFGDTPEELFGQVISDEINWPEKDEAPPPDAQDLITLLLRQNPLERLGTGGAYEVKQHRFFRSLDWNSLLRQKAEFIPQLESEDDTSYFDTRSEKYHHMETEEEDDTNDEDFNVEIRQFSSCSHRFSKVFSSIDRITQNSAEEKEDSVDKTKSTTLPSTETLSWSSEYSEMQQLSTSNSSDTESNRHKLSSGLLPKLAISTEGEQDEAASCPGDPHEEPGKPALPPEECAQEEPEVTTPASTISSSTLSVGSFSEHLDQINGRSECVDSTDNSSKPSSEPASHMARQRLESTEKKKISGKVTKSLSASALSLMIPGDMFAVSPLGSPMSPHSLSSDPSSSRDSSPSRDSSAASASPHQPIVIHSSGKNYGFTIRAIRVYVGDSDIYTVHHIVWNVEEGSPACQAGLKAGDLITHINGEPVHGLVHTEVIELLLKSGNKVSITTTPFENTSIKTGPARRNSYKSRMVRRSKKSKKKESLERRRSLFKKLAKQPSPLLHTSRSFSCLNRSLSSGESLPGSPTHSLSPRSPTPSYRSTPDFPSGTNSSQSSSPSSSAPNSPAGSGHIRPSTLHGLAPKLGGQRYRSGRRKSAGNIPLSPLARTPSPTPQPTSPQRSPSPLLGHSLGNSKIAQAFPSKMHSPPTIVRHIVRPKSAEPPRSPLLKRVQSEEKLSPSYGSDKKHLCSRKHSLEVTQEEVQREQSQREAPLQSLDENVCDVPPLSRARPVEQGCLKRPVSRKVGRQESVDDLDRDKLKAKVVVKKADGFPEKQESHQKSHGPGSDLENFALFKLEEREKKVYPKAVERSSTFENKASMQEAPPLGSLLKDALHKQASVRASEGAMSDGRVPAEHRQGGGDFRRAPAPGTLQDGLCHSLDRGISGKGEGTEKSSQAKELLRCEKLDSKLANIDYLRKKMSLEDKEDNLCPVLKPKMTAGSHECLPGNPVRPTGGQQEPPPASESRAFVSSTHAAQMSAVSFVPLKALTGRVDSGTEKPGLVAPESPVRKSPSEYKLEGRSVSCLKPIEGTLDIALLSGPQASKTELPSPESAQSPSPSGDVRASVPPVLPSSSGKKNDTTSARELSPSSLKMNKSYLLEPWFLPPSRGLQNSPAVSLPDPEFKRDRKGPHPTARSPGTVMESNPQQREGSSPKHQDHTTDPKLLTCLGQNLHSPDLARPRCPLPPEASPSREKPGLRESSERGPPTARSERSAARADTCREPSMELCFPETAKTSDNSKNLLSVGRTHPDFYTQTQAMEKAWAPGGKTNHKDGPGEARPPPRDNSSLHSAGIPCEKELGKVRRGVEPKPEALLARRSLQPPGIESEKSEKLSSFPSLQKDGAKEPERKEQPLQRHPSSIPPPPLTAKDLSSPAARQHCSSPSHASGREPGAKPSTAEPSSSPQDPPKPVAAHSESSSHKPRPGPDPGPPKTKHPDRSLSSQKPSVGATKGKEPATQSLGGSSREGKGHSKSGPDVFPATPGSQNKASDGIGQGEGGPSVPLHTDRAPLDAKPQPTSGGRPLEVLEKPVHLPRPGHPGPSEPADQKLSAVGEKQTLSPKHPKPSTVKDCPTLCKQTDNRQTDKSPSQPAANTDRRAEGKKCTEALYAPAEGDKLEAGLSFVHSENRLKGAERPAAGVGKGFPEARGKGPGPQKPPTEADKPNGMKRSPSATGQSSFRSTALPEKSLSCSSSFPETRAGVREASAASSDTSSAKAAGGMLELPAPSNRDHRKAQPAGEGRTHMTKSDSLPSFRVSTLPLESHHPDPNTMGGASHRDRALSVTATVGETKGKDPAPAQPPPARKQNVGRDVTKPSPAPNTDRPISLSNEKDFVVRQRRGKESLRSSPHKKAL
UniProt Q5TF39: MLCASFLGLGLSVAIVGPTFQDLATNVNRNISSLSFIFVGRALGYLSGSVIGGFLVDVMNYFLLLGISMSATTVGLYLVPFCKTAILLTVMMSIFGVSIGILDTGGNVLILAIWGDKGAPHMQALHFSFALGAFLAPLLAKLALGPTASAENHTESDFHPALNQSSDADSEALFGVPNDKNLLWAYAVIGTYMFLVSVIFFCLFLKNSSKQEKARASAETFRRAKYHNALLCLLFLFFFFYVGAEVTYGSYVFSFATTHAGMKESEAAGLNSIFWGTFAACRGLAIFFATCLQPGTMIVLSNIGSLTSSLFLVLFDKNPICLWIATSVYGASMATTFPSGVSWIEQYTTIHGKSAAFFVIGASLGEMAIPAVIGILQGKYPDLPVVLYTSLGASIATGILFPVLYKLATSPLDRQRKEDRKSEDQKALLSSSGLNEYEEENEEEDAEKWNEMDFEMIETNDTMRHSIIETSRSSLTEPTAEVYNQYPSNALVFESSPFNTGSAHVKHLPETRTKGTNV
UniProt Q15528: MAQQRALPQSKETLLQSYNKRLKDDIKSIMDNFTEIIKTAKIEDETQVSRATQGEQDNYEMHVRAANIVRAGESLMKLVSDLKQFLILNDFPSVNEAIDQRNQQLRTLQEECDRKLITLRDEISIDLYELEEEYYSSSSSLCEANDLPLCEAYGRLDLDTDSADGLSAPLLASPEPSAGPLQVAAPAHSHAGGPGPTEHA
UniProt Q14703: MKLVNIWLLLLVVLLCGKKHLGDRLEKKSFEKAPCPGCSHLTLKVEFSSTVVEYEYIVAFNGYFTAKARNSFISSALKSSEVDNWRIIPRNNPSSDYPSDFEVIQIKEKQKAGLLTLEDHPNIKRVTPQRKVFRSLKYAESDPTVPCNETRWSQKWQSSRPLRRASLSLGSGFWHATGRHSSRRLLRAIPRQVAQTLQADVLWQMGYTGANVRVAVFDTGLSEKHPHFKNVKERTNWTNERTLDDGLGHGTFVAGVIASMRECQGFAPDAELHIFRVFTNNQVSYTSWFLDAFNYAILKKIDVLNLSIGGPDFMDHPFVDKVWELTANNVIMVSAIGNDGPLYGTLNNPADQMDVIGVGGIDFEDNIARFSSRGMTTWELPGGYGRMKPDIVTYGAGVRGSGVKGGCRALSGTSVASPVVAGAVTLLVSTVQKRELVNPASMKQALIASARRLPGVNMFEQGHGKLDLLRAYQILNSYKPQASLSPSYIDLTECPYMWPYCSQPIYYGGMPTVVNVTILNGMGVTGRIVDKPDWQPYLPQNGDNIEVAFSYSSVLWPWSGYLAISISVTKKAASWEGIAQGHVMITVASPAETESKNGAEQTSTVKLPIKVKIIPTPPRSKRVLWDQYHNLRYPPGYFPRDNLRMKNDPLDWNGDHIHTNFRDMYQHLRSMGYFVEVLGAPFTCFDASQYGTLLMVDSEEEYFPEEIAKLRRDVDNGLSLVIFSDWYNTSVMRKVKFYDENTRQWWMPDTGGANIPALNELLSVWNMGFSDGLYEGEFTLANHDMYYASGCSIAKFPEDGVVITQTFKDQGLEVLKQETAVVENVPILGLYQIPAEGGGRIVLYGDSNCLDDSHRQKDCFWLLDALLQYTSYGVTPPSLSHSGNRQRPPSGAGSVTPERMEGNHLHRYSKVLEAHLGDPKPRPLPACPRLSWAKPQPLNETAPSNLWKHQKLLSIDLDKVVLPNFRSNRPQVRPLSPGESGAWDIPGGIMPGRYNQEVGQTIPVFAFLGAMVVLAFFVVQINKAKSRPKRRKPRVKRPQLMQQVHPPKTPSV
UniProt Q8NHS3: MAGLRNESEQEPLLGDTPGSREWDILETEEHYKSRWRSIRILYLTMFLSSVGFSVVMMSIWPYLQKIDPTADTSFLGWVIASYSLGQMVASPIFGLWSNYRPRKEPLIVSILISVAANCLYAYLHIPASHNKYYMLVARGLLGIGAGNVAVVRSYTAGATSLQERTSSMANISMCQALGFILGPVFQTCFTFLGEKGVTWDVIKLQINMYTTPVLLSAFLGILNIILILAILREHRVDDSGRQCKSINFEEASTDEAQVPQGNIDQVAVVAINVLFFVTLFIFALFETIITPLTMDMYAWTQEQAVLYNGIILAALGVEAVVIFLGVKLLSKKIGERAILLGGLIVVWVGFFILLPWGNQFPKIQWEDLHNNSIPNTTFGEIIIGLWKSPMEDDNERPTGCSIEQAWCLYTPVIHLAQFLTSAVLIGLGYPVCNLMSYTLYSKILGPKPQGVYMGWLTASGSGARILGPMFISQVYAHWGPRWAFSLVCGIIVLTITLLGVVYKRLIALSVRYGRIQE

Legend:
Assay in all cases: log2 fold change, soluble protein after heating vs DMSO (PISA); higher = thermal stabilisation; K562 cells, 10 uM, 30 min; active = over 0.2 and 3.5 SD of the protein, either way, in both replicates (recomputed)
[1] = compound: C1=CC=C(C=C1)[C@H](COC2=CC3=C(C=C2)NC(=O)N3)NC(=O)C4=CC=CN(C4=O)CC5=CC(=C(C=C5)F)F
How it was run: (§1)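 Soluble protein was defined as the supernatant after 21,000xg for 90 min. It came from K562 cells at 2×10^6 cells/mL given 10 μM compound for 30 min, heated in aliquots for 3 min across 48°C-58°C, pooled, and extracted in PBS with 0.5% NP-40 at 4°C, and was quantified by TMTpro 16plex LC-MS/MS with equalised channel sums. Thermal stability against control samples, from duplicates, is reported as log2 fold change.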

[2] = compound: CC1=C(SC2=C1C(=N[C@H](C3=NN=C(N32)C)CC(=O)N)C4=CC=C(C=C4)Cl)C
How it was run: as §1

[3] = compound: CC1=C2C(=CC=C1)N=C(N(C2=O)C3=CC=CC=C3C)CN4C=NC5=C(N=CN=C54)N
How it was run: as §1

[4] = compound: Cc1sc2c(c1C)C(c1ccc(Cl)cc1)=N[C@@H](CC(=O)OC(C)(C)C)c1nnc(C)n1-2
How it was run: as §1

[5] = compound: c1ccc([C@@H]2C[C@H]2NC2CCNCC2)cc1
How it was run: as §1

Measured: log2 fold change

MDH2 (UniProt P40926)
inactive: [1] 0.021 | [2] 0.013 | [3] -0.011 | [4] 0.006 | [5] 0.016

MFSD11 (UniProt O43934)
inactive: [1] 0.04 | [2] 0.11 | [3] 0.104 | [4] -0.03 | [5] -0.049

MFGE8 (UniProt Q08431)
inactive: [1] 0.005 | [2] -0.051 | [3] -0.091 | [4] -0.068 | [5] -0.129

MEAK7 (UniProt Q6P9B6)
inactive: [1] -0.009 | [2] 0.051 | [3] 0.042 | [4] -0.009 | [5] -0.048

MCEE (UniProt Q96PE7)
inactive: [1] 0.022 | [2] 0.161 | [3] 0.064 | [4] -0.16 | [5] 0.084

MESD (UniProt Q14696)
inactive: [1] 0.011 | [2] 0.021 | [3] 0.029 | [4] 0.004 | [5] 0.001

MECP2 isoform 2 (UniProt P51608)
inactive: [1] 0.024 | [2] -0.247 | [3] -0.144 | [4] 0.223 | [5] -0.011

MED30 (UniProt Q96HR3)
inactive: [1] 0.065 | [2] -0.017 | [3] 0.119 | [4] -0.039 | [5] -0.037

MEF2D (UniProt Q14814)
inactive: [1] 0.061 | [2] 0.035 | [3] 0.198 | [4] -0.022 | [5] 0.068

MBD3 (UniProt O95983)
inactive: [1] 0.015 | [2] -0.018 | [3] 0.032 | [4] -0.018 | [5] 0.057

MAST4 (UniProt O15021)
inactive: [1] -0.081 | [2] 0.037 | [3] 0.061 | [4] -0.002 | [5] -0.041

MFSD4B (UniProt Q5TF39)
inactive: [1] 0.079 | [2] -0.022 | [3] -0.083 | [4] 0 | [5] -0.083

METTL14 (UniProt Q9HCE5)
inactive: [1] -0.026 | [2] 0.001 | [3] -0.035 | [4] -0.02 | [5] 0.005

MED22 (UniProt Q15528)
inactive: [1] 0.013 | [2] 0.065 | [3] 0.013 | [4] 0.195 | [5] 0

MBTPS1 (UniProt Q14703)
inactive: [1] 0.162 | [2] 0 | [3] -0.043 | [4] 0.023 | [5] 0.102

MFAP1 (UniProt P55081)
inactive: [1] 0.052 | [2] -0.047 | [3] -0.024 | [4] -0.037 | [5] 0.012

MED1 (UniProt Q15648)
inactive: [1] -0.033 | [2] -0.009 | [3] 0.03 | [4] 0.079 | [5] 0.058

MFSD8 (UniProt Q8NHS3)
inactive: [1] -0.134 | [2] -0.033 | [3] 0.074 | [4] -0.289 | [5] 0.119

MBNL1 (UniProt Q9NR56)
inactive: [1] -0.015 | [2] -0.063 | [3] -0.13 | [4] 0.037 | [5] 0.051

MCAT (UniProt Q8IVS2)
inactive: [1] -0.01 | [2] -0.092 | [3] 0.011 | [4] 0.039 | [5] -0.008

MCM5 (UniProt P33992)
inactive: [1] -0.032 | [2] 0.019 | [3] -0.035 | [4] -0.022 | [5] -0.009

MCFD2 (UniProt Q8NI22)
inactive: [1] -0.043 | [2] 0.027 | [3] -0.192 | [4] 0.022 | [5] 0.122

MCRIP2 (UniProt Q9BUT9)
inactive: [1] -0.05 | [2] 0.145 | [4] -0.045 | [5] -0.103

Copied from above (two entries):
MBNL1 (UniProt Q9NR56)
inactive: [1] -0.015 | [2] -0.063 | [3] -0.13 | [4] 0.037 | [5] 0.051

MCAT (UniProt Q8IVS2)
inactive: [1] -0.01 | [2] -0.092 | [3] 0.011 | [4] 0.039 | [5] -0.008

Remaining list, next part

MED25 isoform 3 (UniProt Q71SY5)
inactive: [1] -0.12 | [2] 0.06 | [3] -0.14 | [4] -0.128 | [5] -0.257

MERTK (UniProt Q12866)
inactive: [1] -0.073 | [2] 0.006 | [3] -0.053 | [4] 0.039 | [5] 0.062
